# Results as given in PMC8384837.
# Where a chain is given by its changes, count along the chain named. This is one part of the list. For some assays here: At the low end of the ranking the order means little.
# Legend:
# Details in all cases: yeast three-hybrid, YBZ-1, SC-Leu-His + 0.5 mM 3-AT, 4 days
# [1] = molecular target: T1, PUM1 PUF domain R5-KSS C1007K + R1008S + Q1011S (Homo sapiens) (UniProt Q14671)
# T1 sequence: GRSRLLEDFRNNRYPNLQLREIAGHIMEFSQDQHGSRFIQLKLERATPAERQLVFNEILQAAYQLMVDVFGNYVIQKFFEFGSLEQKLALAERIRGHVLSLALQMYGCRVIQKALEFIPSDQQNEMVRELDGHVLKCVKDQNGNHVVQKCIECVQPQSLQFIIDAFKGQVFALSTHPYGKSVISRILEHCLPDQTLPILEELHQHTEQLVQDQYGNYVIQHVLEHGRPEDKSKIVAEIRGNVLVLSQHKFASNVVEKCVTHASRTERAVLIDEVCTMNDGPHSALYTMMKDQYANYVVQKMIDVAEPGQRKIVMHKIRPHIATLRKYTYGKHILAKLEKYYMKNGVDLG
# [2] = molecular target: T2, PUM1 PUF domain R5-KSV C1007K + R1008S + Q1011V (Homo sapiens) (UniProt Q14671)
# T2 sequence: T1 sequence with S184V
# [3] = molecular target: T3, PUM1 PUF domain R5-KSW C1007K + R1008S + Q1011W (UniProt Q14671)
# T3 sequence: T1 sequence with S184W
# [4] = molecular target: T4, PUM1 PUF domain R5-KTC C1007K + R1008T + Q1011C (Homo sapiens) (UniProt Q14671)
# T4 sequence: T1 sequence with S181T, S184C
# [5] = molecular target: T5, PUM1 PUF domain R5-KTL C1007K + R1008T + Q1011L (UniProt Q14671)
# T5 sequence: T1 sequence with S181T, S184L
# [6] = molecular target: T6, PUM1 PUF domain R5-KTS C1007K + R1008T + Q1011S (Homo sapiens) (UniProt Q14671)
# T6 sequence: T1 sequence with S181T
# [7] = molecular target: T7, PUM1 PUF domain R5-KTV C1007K + R1008T + Q1011V (UniProt Q14671)
# T7 sequence: T1 sequence with S181T, S184V
# [8] = molecular target: T8, PUM1 PUF domain R5-KVE C1007K + R1008V + Q1011E (UniProt Q14671)
# T8 sequence: T1 sequence with S181V, S184E
# [9] = molecular target: T9, PUM1 PUF domain R5-LHP C1007L + R1008H + Q1011P (Homo sapiens) (UniProt Q14671)
# T9 sequence: T1 sequence with K180L, S181H, S184P
# [10] = molecular target: T10, PUM1 PUF domain R5-LKL C1007L + R1008K + Q1011L (UniProt Q14671)
# T10 sequence: T1 sequence with K180L, S181K, S184L
# [11] = molecular target: T11, PUM1 PUF domain R5-LLR C1007L + R1008L + Q1011R (UniProt Q14671)
# T11 sequence: T1 sequence with K180L, S181L, S184R
# [12] = molecular target: T12, PUM1 PUF domain R5-LNS C1007L + R1008N + Q1011S (Homo sapiens) (UniProt Q14671)
# T12 sequence: T1 sequence with K180L, S181N
# [13] = molecular target: T13, PUM1 PUF domain R5-LWV C1007L + R1008W + Q1011V (Homo sapiens) (UniProt Q14671)
# T13 sequence: T1 sequence with K180L, S181W, S184V
# [14] = molecular target: T14, PUM1 PUF domain R5-MKC C1007M + R1008K + Q1011C (Homo sapiens) (UniProt Q14671)
# T14 sequence: T1 sequence with K180M, S181K, S184C
# [15] = molecular target: T15, PUM1 PUF domain R5-MKR C1007M + R1008K + Q1011R (Homo sapiens) (UniProt Q14671)
# T15 sequence: T1 sequence with K180M, S181K, S184R
# [16] = molecular target: T16, PUM1 PUF domain R5-NAG C1007N + R1008A + Q1011G (Homo sapiens) (UniProt Q14671)
# T16 sequence: T1 sequence with K180N, S181A, S184G
# [17] = molecular target: T17, PUM1 PUF domain R5-NAR C1007N + R1008A + Q1011R (Homo sapiens) (UniProt Q14671)
# T17 sequence: T1 sequence with K180N, S181A, S184R
# [18] = molecular target: T18, PUM1 PUF domain R5-NAV C1007N + R1008A + Q1011V (Homo sapiens) (UniProt Q14671)
# T18 sequence: T1 sequence with K180N, S181A, S184V
# [19] = molecular target: T19, PUM1 PUF domain R5-NDG C1007N + R1008D + Q1011G (UniProt Q14671)
# T19 sequence: T1 sequence with K180N, S181D, S184G
# [20] = molecular target: T20, PUM1 PUF domain R5-NDI C1007N + R1008D + Q1011I (UniProt Q14671)
# T20 sequence: T1 sequence with K180N, S181D, S184I
sequence,measurement,setting,value
GGCUAGAACUAGUGGAUCCCCCGGCGCCCGGCGGCUCGAGCCCGGGUAAGUGUAAAUAGUCUGCAUGCCGCCGGGCGCCAUGCCUGCAGGUCGACUCUAGAAAACAUG,binding signal (log2 enrichment (interaction score)),[1],-0.04
same,binding signal (log2 enrichment (interaction score)),[2],-1.38
same,binding signal (log2 enrichment (interaction score)),[3],-4.41
same,binding signal (log2 enrichment (interaction score)),[4],-1.88
same,binding signal (log2 enrichment (interaction score)),[5],< -7.2
same,binding signal (log2 enrichment (interaction score)),[6],-3.49
same,binding signal (log2 enrichment (interaction score)),[7],< -8.2
same,binding signal (log2 enrichment (interaction score)),[8],< -6.29
same,binding signal (log2 enrichment (interaction score)),[9],0.45
same,binding signal (log2 enrichment (interaction score)),[10],-3.56
same,binding signal (log2 enrichment (interaction score)),[11],-3.19
same,binding signal (log2 enrichment (interaction score)),[12],-1.13
same,binding signal (log2 enrichment (interaction score)),[13],0.35
same,binding signal (log2 enrichment (interaction score)),[14],-1.63
same,binding signal (log2 enrichment (interaction score)),[15],-1.21
same,binding signal (log2 enrichment (interaction score)),[16],-1.45
same,binding signal (log2 enrichment (interaction score)),[17],0.01
same,binding signal (log2 enrichment (interaction score)),[18],-1.34
same,binding signal (log2 enrichment (interaction score)),[19],< -7.15
same,binding signal (log2 enrichment (interaction score)),[20],< -5.57

# Nothing new here: an excerpt of the list.
sequence,measurement,setting,value
GGCUAGAACUAGUGGAUCCCCCGGCGCCCGGCGGCUCGAGCCCGGGUAAGUGUAAAUAGUCUGCAUGCCGCCGGGCGCCAUGCCUGCAGGUCGACUCUAGAAAACAUG,binding signal (log2 enrichment (interaction score)),[16],-1.45
same,binding signal (log2 enrichment (interaction score)),[17],0.01
same,binding signal (log2 enrichment (interaction score)),[18],-1.34
same,binding signal (log2 enrichment (interaction score)),[19],< -7.15
